The supplement of paper PMC7600603

Columns and labels:
DLD1 NRF2-GOF [1] = test: drug sensitivity score (DSS) cytotoxicity (DSS score); higher = more toxic; extreme values may be limits of the assay; settings: 72 h; CellTox Green cytotoxicity
How it was run: (§1)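 Isogenic DLD1 colorectal cancer cells differing in NRF2 status, one line edited by CRISPR, were cultured in DMEM with 10% FBS and treated in 384-well plates with library compounds at 5 concentrations spanning a 10,000-fold range. Plates were read after 72 h with CellTox Green on a Pherastar FS reader, and signals were normalised to vehicle wells and 100-μM positive-control wells. Cytotoxicity was summarised as TC50 and as a drug sensitivity score, a normalised area under the curve, both from logistic dose-response fits.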

DLD1 NRF2-WT = test: as above; settings: 72 h; CellTox Green cytotoxicity
How it was run: as §1

DLD1 NRF2-GOF [2] = test: drug sensitivity score (DSS) viability (DSS score); higher = more sensitive; extreme values may be limits of the assay; settings: 72 h; CellTiter-Glo viability
How it was run: (§2)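 Library compounds were tested in 384-well plates at 5 concentrations covering a 10,000-fold span against isogenic DLD1 colorectal cancer cells, NRF2 wild-type or CRISPR gain-of-function, grown in DMEM with 10% FBS. Viability was measured at 72 h with CellTiter-Glo on a Pherastar FS reader, relative to vehicle wells and 100-μM positive-control wells. EC50 and drug sensitivity score (normalised area under the curve) were derived from logistic dose-response curves fitted with four parameters.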

DLD1 NRF2-GOF [3] = settings: 72 h; CellTiter-Glo viability
How it was run: as §2

EC50 viability (DLD1 NRF2-GOF [3]): 4.18 µM
Structure (SMILES): C[C@@H]1C[C@H](N)C[C@H](c2ccncc2NC(=O)c2ccc(F)c(-c3c(F)cccc3F)n2)C1 [PIM-447]
drug sensitivity score (DLD1 NRF2-GOF [1]): 0
drug sensitivity score (DLD1 NRF2-WT): 0
drug sensitivity score (DLD1 NRF2-GOF [2]): 2.3
